Assay results: US20020150567A1 (University of California, published 2002)

Protein sequences, listed by entry. Tags and fused reporters are not part of them. Lines headed by an entry give the natural chain unless they say otherwise; changes in a name come on top.
UniProt P15498: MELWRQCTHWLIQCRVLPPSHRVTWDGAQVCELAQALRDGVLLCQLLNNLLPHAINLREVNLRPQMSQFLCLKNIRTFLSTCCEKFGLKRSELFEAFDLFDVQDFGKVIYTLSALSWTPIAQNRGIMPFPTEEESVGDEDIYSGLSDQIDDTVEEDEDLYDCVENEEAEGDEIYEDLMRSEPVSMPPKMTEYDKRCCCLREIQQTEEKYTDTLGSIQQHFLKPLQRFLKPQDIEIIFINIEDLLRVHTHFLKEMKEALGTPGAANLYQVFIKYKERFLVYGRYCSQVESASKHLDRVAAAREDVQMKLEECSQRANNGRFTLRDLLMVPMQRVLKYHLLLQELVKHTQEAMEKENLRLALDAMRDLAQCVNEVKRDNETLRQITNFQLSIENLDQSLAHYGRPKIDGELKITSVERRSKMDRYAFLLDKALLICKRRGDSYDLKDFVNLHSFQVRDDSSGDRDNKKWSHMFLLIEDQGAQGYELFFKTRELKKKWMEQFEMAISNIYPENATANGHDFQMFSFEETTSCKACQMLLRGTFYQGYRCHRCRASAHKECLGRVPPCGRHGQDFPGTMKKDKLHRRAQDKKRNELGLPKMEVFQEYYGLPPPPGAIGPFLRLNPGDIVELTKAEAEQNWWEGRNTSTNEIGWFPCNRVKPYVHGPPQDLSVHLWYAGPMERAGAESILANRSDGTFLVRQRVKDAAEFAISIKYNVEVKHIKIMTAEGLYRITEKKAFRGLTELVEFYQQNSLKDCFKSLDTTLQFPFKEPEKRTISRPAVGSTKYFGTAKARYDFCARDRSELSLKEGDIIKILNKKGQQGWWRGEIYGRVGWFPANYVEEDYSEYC

Target: GST [GST: P08515]
Test: Far-Western blot with radioactively labeled probe

## Vav SH3-SH2-SH3 domains (amino acids 648-844) (from UniProt P15498)
  binding: no binding

These are yes or no findings as the source states them, for the method shown.
